# US6358736B1, “Method for increasing the antigen presenting ability of leukemia cells” (The United States of America as represented by the …, priority 1995, dated 2002)
# Some of these results come from one statement about several compounds together. At least one structure is not confirmed: it was looked up by name or label, or the drawing left a doubt.
# Test system: HL-60 cells
# Assay: FACS analysis of cell surface markers on HL-60 cells
# Assay type: cell-based, human
# Conditions: A23187 188 ng/ml, 24 hours
# Method: Calcium was removed from cultured cells by two methods.
# The second method involved washing the cells extensively in calcium-free RPMI medium, and culturing them in the same calcium-free medium supplemented with serum that had been dialyzed against calcium-free phosphate-buffered saline.
# The calmodulin kinase inhibitors KN-62 (20 uM) or KT-5926 (1 uM) was added to HL-60 cells in the presence of 188 ng/ml A23187. Twenty four hours later the level of CD80 was analyzed.
# Thapsigargin was added to cultured human peripheral blood monocytes and HL-60 cells in concentrations ranging from 0 to 1000 nM. Cells were harvested 24 hours later and evaluated for the acquisition of ADC immunophenotypic characteristics by FACS analysis.
# Cells were harvested after three days, irradiated (3000R), then FACS analyzed or cocultured in graded numbers with freshly prepared naive (CD45RO negative) T lymphocytes. Allosensitization was assessed by pulsing at day 4 with ^3H-TdR and harvesting 18 hours later.
SMILES,inhibition of CD80 expression (KT-5926 1 uM),inhibition of CD80 expression (KN-62 20 uM)
CCCOc1ccc2c(c1)c1c3c(c4c5ccccc5n5c4c1n2[C@H]1C[C@](O)(C(=O)OC)[C@]5(C)O1)CNC3=O [KT-5926],greater than 50%,
CN([C@@H](Cc1ccc(OS(=O)(=O)c2cccc3cnccc23)cc1)C(=O)N1CCN(c2ccccc2)CC1)S(=O)(=O)c1cccc2cnccc12 [KN-62],,greater than 50%
